Measurements from article PMC9971101, “Comparison of Five Near-Infrared Fluorescent Folate Conjugates in an Ovarian Cancer Model” (Molecular Imaging and Biology, 2021).

Test system: Skov-3 subcutaneous xenografts
Test: In vivo biodistribution and optimal time point FLI in subcutaneous Skov-3 xenograft model (IVIS Spectrum)
Parameters: species or system NOD-scid IL2Rg^null mice
Details: iv injection, Skov-3 subcutaneous xenograft, n = 3 per conjugate, imaged 0.5 to 48 h
Method: All applicable institutional and/or national guidelines for the care and use of animals were followed. All experiments were approved by The Norwegian Animal Research Authority and conducted according to The European Convention for the Protection of Vertebrates Used for Scientific Purposes (Application ID 14128). NOD-scid IL2Rg^null mice (referred to as NSG) were housed in groups of ≤ 5 in individually ventilated cages changed twice per month and kept in a 12-h […] schedule at 21 °C at the Vivarium, University of Bergen. Observations for general condition and body weights were recorded twice per week and, when indicated, the animals were euthanised according to institutional guidelines. Skov-3 and A549 subcutaneous xenografts were established through bi-lateral flank injections of 5 × 10^6 cells, resuspended in 100 μL PBS containing 16.7% Matrigel (Corning Inc., MA, USA). Tumour volumes were measured weekly with a digital calliper and calculated using the ellipsoid volume formula: Volume = π (length × width × height)/6.
For biodistribution assessment of conjugates 1–5, mice were intravenously (iv) injected with 100 μL of a 10-μM conjugate solution when mean tumour volumes reached ≈150 mm^3, corresponding to a dose of […]. The dose was chosen on the basis of preclinical mouse models previously performed using folate-NIR (OTL38) FLI [28]. To determine the timepoint for the optimal TBR, optical imaging was performed at 0 h, 0.5 h, 1 h, 2 h, 4 h, 6 h, 8 h, 24 h and 48 h using the IVIS Spectrum. Fluorescence signals were analysed with the Living Imaging® software v4.5 (PerkinElmer Inc.) and expressed as average radiance (p/s/cm^2/sr). Regions of interest (ROI) were manually drawn around the subcutaneous tumours in the flanks and the adjacent tissue to calculate TBRs at all time points. Next, subcutaneous xenograft models were imaged at the pre-determined optimal time points, which were 4 h for conjugates 1, 2 and 3 and 24 h for conjugates 4 and 5.

SMILES	optimal time point for achieving the best TBR [h]
CC1(C)C(/C=C/C2=C(c3ccc(CCC(=O)NCCNC(=O)CC[C@H](NC(=O)c4ccc(NCc5cnc6nc(N)[nH]c(=O)c6n5)cc4)C(=O)O)cc3)C(=C/C=C3/N(CCC[N+](C)(C)C)c4ccc(S(=O)(=O)O)cc4C3(C)C)/CCC2)=[N+](CCC[N+](C)(C)C)c2ccc(S(=O)(=O)O)cc21 [Conjugate 2, 2-((E)-2-((E)-4'-(3-((2-((S)-4-(4-(((2-amino-4-oxo-3,4-dihydropteridin-6-yl)methyl)amino)benzamido)-4-carboxybutanamido)ethyl)amino)-3-oxopropyl)-6-(2-((E)-3,3-dimethyl-5-sulfonato-1-(3-(trimethylammonio)propyl)indolin-2-ylidene)ethylidene)-3,4,5,6-tetrahydro-[1,1'-biphenyl]-2-yl)vinyl)-3,3-dimethyl-1-(3-(trimethylammonio)propyl)-3H-indol-1-ium-5-sulfonate]	8
CC1(C)C(/C=C/C=C/C=C/C=C2\N(CCCCCC(=O)NCCNC(=O)CC[C@H](NC(=O)c3ccc(NCc4cnc5nc(N)[nH]c(=O)c5n4)cc3)C(=O)O)c3ccc4ccccc4c3C2(C)C)=[N+](CCCCS(=O)(=O)[O-])c2ccc3ccccc3c21 [Conjugate 4, 4-(2-((1E,3E,5E,7Z)-7-(3-(6-((2-((S)-4-(4-(((2-amino-4-oxo-3,4-dihydropteridin-6-yl)methyl)amino)benzamido)-4-carboxybutanamido)ethyl)amino)-6-oxohexyl)-1,1-dimethyl-1,3-dihydro-2H-benzo[e]indol-2-ylidene)hepta-1,3,5-trien-1-yl)-1,1-dimethyl-1H-benzo[e]indol-3-ium-3-yl)butane-1-sulfonate]	0.5
CC1(C)C(/C=C/C2=C(Oc3ccc(CCC(=O)NCCNC(=O)CC[C@H](NC(=O)c4ccc(NCc5cnc6nc(N)[nH]c(=O)c6n5)cc4)C(=O)O)cc3)C(=C/C=C3/N(CCC[N+](C)(C)C)c4ccc(S(=O)(=O)O)cc4C3(C)C)/CCC2)=[N+](CCC[N+](C)(C)C)c2ccc(S(=O)(=O)O)cc21 [Conjugate 1, 2-((E)-2-((E)-2-(4-(3-((2-((S)-4-(4-(((2-amino-4-oxo-3,4-dihydropteridin-6-yl)methyl)amino)benzamido)-4-carboxybutanamido)ethyl)amino)-3-oxopropyl)phenoxy)-3-(2-((E)-3,3-dimethyl-5-sulfonato-1-(3-(trimethylammonio)propyl)indolin-2-ylidene)ethylidene)cyclohex-1-en-1-yl)vinyl)-3,3-dimethyl-1-(3-(trimethylammonio)propyl)-3H-indol-1-ium-5-sulfonate]	8
CC1(C)C(/C=C/C2=C(Oc3ccc(S(=O)(=O)O)cc3)C(=C/C=C3/N(CCCCS(=O)(=O)O)c4ccc(S(=O)(=O)[O-])cc4C3(C)C)/CCC2)=[N+](CCCCCC(=O)NCCNC(=O)CC[C@H](NC(=O)c2ccc(NCc3cnc4nc(N)[nH]c(=O)c4n3)cc2)C(=O)O)c2ccc(S(=O)(=O)O)cc21 [Conjugate 3, 1-(6-((2-((S)-4-(4-(((2-amino-4-oxo-3,4-dihydropteridin-6-yl)methyl)amino)benzamido)-4-carboxybutanamido)ethyl)amino)-6-oxohexyl)-2-((E)-2-((E)-3-(2-((E)-3,3-dimethyl-5-sulfonato-1-(4-sulfonatobutyl)indolin-2-ylidene)ethylidene)-2-(4-sulfonatophenoxy)cyclohex-1-en-1-yl)vinyl)-3,3-dimethyl-3H-indol-1-ium-5-sulfonate]	8
C[N+]1=C(/C=C/C2=C(Cl)C(=C/C=C3/N(CCCCCC(=O)NCCNC(=O)CC[C@H](NC(=O)c4ccc(NCc5cnc6nc(N)[nH]c(=O)c6n5)cc4)C(=O)O)c4ccccc4C3(C)C)/CCC2)C(C)(C)c2ccccc21 [Conjugate 5, 2-((E)-2-((E)-3-(2-((E)-1-(6-((2-((S)-4-(4-(((2-amino-4-oxo-3,4-dihydropteridin-6-yl)methyl)amino)benzamido)-4-carboxybutanamido)ethyl)amino)-6-oxohexyl)-3,3-dimethylindolin-2-ylidene)ethylidene)-2-chlorocyclohex-1-en-1-yl)vinyl)-1,3,3-trimethyl-3H-indol-1-ium]	24
